The text below walks through data of article PMC11599123.

By UniProt entry, the sequences of proteins in these tests, tags left out.
UniProt Q5XI73: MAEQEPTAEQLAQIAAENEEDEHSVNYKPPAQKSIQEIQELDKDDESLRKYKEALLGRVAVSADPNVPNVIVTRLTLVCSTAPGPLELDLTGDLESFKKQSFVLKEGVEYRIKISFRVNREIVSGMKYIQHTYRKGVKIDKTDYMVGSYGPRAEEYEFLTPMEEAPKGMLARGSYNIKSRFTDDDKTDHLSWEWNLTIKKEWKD
UniProt P61589: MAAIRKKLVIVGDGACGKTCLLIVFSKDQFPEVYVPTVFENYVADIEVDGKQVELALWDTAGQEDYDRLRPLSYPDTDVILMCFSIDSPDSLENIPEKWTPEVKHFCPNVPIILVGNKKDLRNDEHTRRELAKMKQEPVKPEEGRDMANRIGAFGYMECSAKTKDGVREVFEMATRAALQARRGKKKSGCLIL

No constants are given. Whether binding was seen depends on the method and setting. In cells and extracts the contact can be indirect. Some entries that bind do so weakly or less than the wild type.

In this assay the target is GST-RhoGDI1 (UniProt Q5XI73). In words: pull-down; GST-RhoGDIs (or GST only) immobilised on glutathione agarose beads, incubated with RBL-2H3 lysate 1 h at 4 °C (50 mM HEPES pH 7.5, 50 mM NaCl, 5 mM MgCl2, 1% Triton X-100); immunoblot for RhoA, RhoG, Rac1, Rac2, Cdc42; only the target purified. (In western blotting, separated proteins are transferred to a membrane and probed.)

Regarding “RhoA, endogenous in RBL-2H3 cells (from UniProt P61589 1-193)”, the binding result was “binds”.
